# The campaign covered roughly 210,000 compounds. About 5,900 (2.8%) were called active. Inconclusive results (about 5%) are left out. Calls come from the whole dose curve; as a rule, active = well fitted activation curve with a large enough effect; inconclusive = small, poorly fitted or top-dose-only effect; inactive = no such curve, though single readings can be large or run the other way. The entries are a selection whose mix differs from that of the whole data set. Entries without a call were filed so in the source.
# Experiment: qHTS Assay for Enhancers of SMN2 Splice Variant Expression; note: nearly all actives have a fitted effect of over 55% in size; for activity change, positive = activation: % of control where 0% means no effect
# Details: HEK293 SMN2-luciferase splicing reporter, luminescence, 30-36 h; activity change, positive = activation: at 46.1 µM (top of the series) unless noted
# Method in brief: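 qHTS luciferase splicing reporter: luminescence rises when SMN2 exon 7 is included in transfected HEK293 cells. Compound exposure lasted 30-36 h at 37C, with 4.5 mM final sodium butyrate as control, followed by a ONE-Glo read.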
# Potency is the fitted concentration of half-maximal effect.
Structure (SMILES),"activity change, positive = activation",Potency
O=C(Nc1nc(-c2ccc(S(=O)(=O)N3CCCCCC3)cc2)cs1)c1cccs1,inactive: -52%,
COc1ccc(NC(=O)c2[nH]c(C)c(C(C)=O)c2C)cc1,402%,
CCOC(=O)c1ccc(NC(=O)c2cc(S(=O)(=O)N3CCOCC3)ccc2O)cc1,inactive: -46.9%,
COC(=O)CN(c1ccccc1F)S(=O)(=O)c1ccccc1,69.9%,
O=C(CN1C(=O)COc2ccc(Cl)cc21)Nc1ccc2c(c1)OCCO2,25%,
Nc1cccc(C(=O)N/N=C/c2ccsc2)c1,35.5%,
Cc1ccc(-n2[nH]c(C)c(C=Nc3ccc(C)cn3)c2=O)cc1,33.6%,
O=c1c2cc(Cl)ccc2[nH]c(=S)n1Cc1ccccn1,13.5%,
C=CCNC(=O)CCCC(=O)NCC=C,33.3%,
O=C(c1ccc(S(=O)(=O)N2CCOCC2)cc1)N(c1cccc(Cl)c1)C1C=CS(=O)(=O)C1 (stereo not drawn),inactive: -32.1%,
Cn1c(O)c(N=NC(=O)c2ccco2)c2ccccc21,,active: 10 µM
N#CC1=C(N)Oc2n[nH]c(-c3ccc(F)cc3)c2C1c1ccncc1 (stereo not drawn),31.7%,
Cc1ccccc1Nc1nnc(SCC2CCCCO2)s1 (stereo not drawn),,active: 11.2 µM
COc1ccc(-c2cc(=O)c3cc(OC)ccc3[nH]2)cc1,,active: 2.51 µM
O=C(NCc1ccccn1)c1nn(-c2ccccc2F)nc1CO,inactive: -50.9%,
Cc1ccc(NC(=O)CCn2nc([N+](=O)[O-])cc2C)nc1,inactive: 7.17%,
Cc1nnc2sc(-c3ccco3)nn12,43.5%,
CCOC(=O)c1c(C)[nH]c(C(=O)Nc2ccc(C)c(Cl)c2)c1C,,active: 11.2 µM
O=C(CSc1nnc(Cc2ccccc2)o1)N1CCCC1,35.8%,
Cn1c(CN2CCOCC2)nc2cc(NC(=O)c3ccccc3Cl)ccc21,-37%,
O=C(Nc1nccs1)C(c1ccccc1)N1CCCC1 (stereo not drawn),inactive: 2.89%,
COc1ccc(C(=O)NC(=S)Nc2ccc(N3CCOCC3)c(Cl)c2)cc1[N+](=O)[O-],-65%,
CCOC(=O)N1CCN(Cc2nc(N)nc(Nc3ccc(Oc4ccccc4)cc3)n2)CC1,-67.4%,

Structure (SMILES),"activity change, positive = activation",Potency
CC1CCN(S(=O)(=O)c2ccc(NC(=O)CSc3ncccc3C(=O)O)cc2)CC1,23.4%,
COc1ccccc1NC(=O)C(=O)Nc1ccccn1,,active: 15.8 µM
COC(Cc1nnc(SC)n1-c1ccc(Cl)cc1)OC,15.4%,
Cc1cccc(NC(=S)N(CCCN2CCCC2)Cc2cccn2Cc2ccc(Cl)cc2)c1,-78.4%,
C/C(=N\NC(=O)COc1ccccc1-c1ccccc1)c1ccccn1,inactive: -58.3%,
CCOC(=O)CSC1=C(C#N)C(c2ccccc2C)C2=C(CCCC2=O)N1 (stereo not drawn),54%,
COc1ccc(-c2noc(CN(C(=O)c3c(-c4ccccc4Cl)noc3C)C(C)C)n2)cc1,-48.8%,
CC(=O)Nc1nc(-c2ccc3c(c2)CCN3S(C)(=O)=O)cs1,,active: 10 µM
CCOc1ccc(NC(=O)COc2nsnc2N2CCCCC2)cc1,inactive: -31.8%,
Cc1ccc(-c2nnn(CC(=O)N(c3ccccc3)C(C(=O)NC3CCCC3)c3ccco3)n2)o1 (stereo not drawn),37.9%,
CCOC(=O)c1c(-c2cccc([N+](=O)[O-])c2)csc1NC(=O)CCCOc1ccccc1OC,-31.3%,
CS(=O)(=O)Nc1ccccc1C(=O)O,45.2%,
c1ccc(CSc2n[nH]c(-c3ccco3)n2)cc1,61.3%,
CCCCN(C(=O)CSc1nnc(Nc2ccccc2)s1)c1c(N)n(CCC)c(=O)[nH]c1=O,44.9%,
Cc1ccc(Nc2nc3ccccc3s2)cc1,,active: 2.82 µM
CCCCNc1nc(C)nc2c1nc(-c1ccccc1)n2CCN1CCCCC1,inactive: -30.3%,
O=C(N/N=C/c1ccc2c(c1)OCO2)c1ccccn1,,active: 3.55 µM
CC(=O)Nc1ccc(NC(=O)c2cccc(-c3cc4ccccc4oc3=O)c2)cc1,,active: 10 µM
Cc1nc2ccc(NC(=O)c3cccs3)cc2c(=O)n1Cc1ccc(Cl)cc1,inactive: -102%,
Clc1ccc(CSc2nnc(-c3c[nH]c4ccccc34)o2)cc1,15.7%,
CCOC(=O)c1sc(NC(=O)c2ccc(S(=O)(=O)N3CCCCCC3)cc2)nc1-c1ccccc1,inactive: -78.5%,
NC(=O)CSCc1c(Cl)cccc1Cl,42%,
O=C(Nc1nc2ccc([N+](=O)[O-])cc2s1)c1ccco1,,active: 3.55 µM

# Looked up above.
# O=C(CSc1nnc(Cc2ccccc2)o1)N1CCCC1 – activity change, positive = activation: 35.8%
# CCOC(=O)c1ccc(NC(=O)c2cc(S(=O)(=O)N3CCOCC3)ccc2O)cc1 – activity change, positive = activation: inactive: -46.9%
# O=c1c2cc(Cl)ccc2[nH]c(=S)n1Cc1ccccn1 – activity change, positive = activation: 13.5%
# Cc1nc2ccc(NC(=O)c3cccs3)cc2c(=O)n1Cc1ccc(Cl)cc1 – activity change, positive = activation: inactive: -102%
# COC(Cc1nnc(SC)n1-c1ccc(Cl)cc1)OC – activity change, positive = activation: 15.4%

# Following part:

Structure (SMILES),"activity change, positive = activation",Potency
COc1cc2[nH]c(=O)n(CCC(=O)NC3CCCC3)c(=O)c2cc1OC,41.6%,
CC(NC(=O)C1CCC1)c1ccccc1 (stereo not drawn),38.1%,
CC1CCCCN1S(=O)(=O)c1ccc(C(=O)Nc2ccccc2-c2nc3ccccc3[nH]2)cc1 (stereo not drawn),-58.6%,
Nc1cc[n+](CC(=O)c2ccc3c(c2)OCCO3)cc1,-54.6%,
CS(=O)(=O)N1CCN(c2ccc(NC(=O)C(c3ccccc3)c3ccccc3)cc2)CC1,inactive: -46.1%,
Cc1ccc(C)n1-c1cccc(NC(=O)c2ccccc2)c1,35.1%,
Fc1ccc([C@H]2CCNCC2COc2ccc3c(c2)OCO3)cc1 (stereo partly drawn),inactive: 0.812%,
NC(=O)COC(=O)c1ccc2c(c1)S(=O)(=O)N=C1CCCCCN12,43.2%,
COc1ccccc1NC(=O)C1=C(C)Nc2nnnn2C1c1ccccc1OC (stereo not drawn),61.4%,
CSc1ccccc1-c1nnc(-c2ccc(Cl)cc2)o1,,active: 14.1 µM
CC(C)Sc1ncc(Cl)c(C(=O)Nc2nc3ccc(S(C)(=O)=O)cc3s2)n1,inactive: 33.6%,
CN(C)c1ccc(NC(=O)c2cccc(C(=O)Nc3ccc(N(C)C)cc3)n2)cc1,,active: 14.1 µM
COC1=CCC2([N+](=O)[O-])CN(CCO)CC1([N+](=O)[O-])C2 (stereo not drawn),32.9%,
COCC(C)N=C1NN=C(c2c[nH]c3ccccc23)CS1 (stereo not drawn),63%,
Cc1ccc(NC(=S)NCCc2ccccc2)nc1,,active: 25.1 µM
CSc1ccc(/C=N/NC(=O)c2cccc(Cl)c2)cc1,,active: 10 µM
O=C(COC(=O)[C@@H]1CCCN1C(=O)c1cccs1)NCCc1ccccc1,38.7%,
O=C(NC(=S)Nc1ccc(N2CCCCC2)cc1)c1ccc2c(c1)OCCO2,inactive: -42.7%,
COC(=O)c1cc(C(=O)OC)cc(N2C(=O)CC(N3CCN(c4ccccc4)CC3)C2=O)c1 (stereo not drawn),31%,
COc1ccc(CCn2c(C)cc(C(=O)CSc3nnnn3-c3ccccc3)c2C)cc1OC,-42%,
O=C(O)CNC(=O)CCN1C(=O)c2ccccc2C1=O,35.8%,
COc1cc(NC(=O)Cn2nc(C(F)(F)F)c3c2CCCC3)cc(OC)c1OC,,inactive

# Source: PubChem BioAssay AID1458 (National Center for Advancing Translational Sciences (NCATS), 2008)
